In test [1] the target is T1, myc-BOP2 (BLADE-ON-PETIOLE 2), expressed in protoplasts (Arabidopsis thaliana) (UniProt Q9ZVC2).
T1 sequence: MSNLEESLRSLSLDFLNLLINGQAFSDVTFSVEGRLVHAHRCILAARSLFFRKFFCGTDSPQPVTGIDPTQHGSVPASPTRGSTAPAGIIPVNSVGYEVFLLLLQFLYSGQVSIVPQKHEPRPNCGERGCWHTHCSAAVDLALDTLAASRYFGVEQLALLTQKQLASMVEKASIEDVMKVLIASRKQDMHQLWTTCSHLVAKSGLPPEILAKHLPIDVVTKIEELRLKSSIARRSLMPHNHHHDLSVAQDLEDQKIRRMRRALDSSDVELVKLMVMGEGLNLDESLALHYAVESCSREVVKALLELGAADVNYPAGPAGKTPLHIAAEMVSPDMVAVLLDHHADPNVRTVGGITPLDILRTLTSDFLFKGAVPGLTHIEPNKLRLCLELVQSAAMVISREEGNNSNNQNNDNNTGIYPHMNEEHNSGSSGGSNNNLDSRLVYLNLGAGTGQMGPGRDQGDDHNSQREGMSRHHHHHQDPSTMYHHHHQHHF
The experiment in a line: co-IP; Arabidopsis protoplasts co-expressing HA-CUL3A, myc-BOP2 and HA-PIF4 together; anti-myc immunoprecipitation; both HA proteins detected at once with anti-HA.

The target of test [2] is T1, myc-BOP2 (BLADE-ON-PETIOLE 2), expressed in protoplasts (Arabidopsis thaliana). The experiment in a line: co-IP; Arabidopsis protoplasts co-transfected with one myc-tagged BOP and one HA-tagged partner; anti-myc (9E10) immunoprecipitation on Protein G-Sepharose, 2 hr at 4°C, EB buffer with 150 mM NaCl and 0.2 mg/ml BSA; blot with anti-HA.
Test [3] has as its target T2, myc-BOP1 (BLADE-ON-PETIOLE 1) (Arabidopsis thaliana) (UniProt Q9M1I7).
T2 sequence: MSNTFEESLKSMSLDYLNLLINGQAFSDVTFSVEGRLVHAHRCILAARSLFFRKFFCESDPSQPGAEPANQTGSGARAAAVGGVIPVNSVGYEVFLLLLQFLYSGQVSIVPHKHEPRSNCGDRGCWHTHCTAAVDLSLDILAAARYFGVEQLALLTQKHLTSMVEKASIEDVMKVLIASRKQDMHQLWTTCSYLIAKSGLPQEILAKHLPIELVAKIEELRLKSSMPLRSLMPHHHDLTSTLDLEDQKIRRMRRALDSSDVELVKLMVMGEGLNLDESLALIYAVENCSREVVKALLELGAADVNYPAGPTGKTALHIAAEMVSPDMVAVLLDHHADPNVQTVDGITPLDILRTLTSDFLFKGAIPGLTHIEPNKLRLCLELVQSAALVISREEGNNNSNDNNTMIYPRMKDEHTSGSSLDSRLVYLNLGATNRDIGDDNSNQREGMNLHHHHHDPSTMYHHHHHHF
The test is described as above.

The target in test [4] is T3, myc-BOP2 in 35S::myc-BOP2 transgenic plants (Arabidopsis thaliana) (UniProt Q9ZVC2).
T3 sequence: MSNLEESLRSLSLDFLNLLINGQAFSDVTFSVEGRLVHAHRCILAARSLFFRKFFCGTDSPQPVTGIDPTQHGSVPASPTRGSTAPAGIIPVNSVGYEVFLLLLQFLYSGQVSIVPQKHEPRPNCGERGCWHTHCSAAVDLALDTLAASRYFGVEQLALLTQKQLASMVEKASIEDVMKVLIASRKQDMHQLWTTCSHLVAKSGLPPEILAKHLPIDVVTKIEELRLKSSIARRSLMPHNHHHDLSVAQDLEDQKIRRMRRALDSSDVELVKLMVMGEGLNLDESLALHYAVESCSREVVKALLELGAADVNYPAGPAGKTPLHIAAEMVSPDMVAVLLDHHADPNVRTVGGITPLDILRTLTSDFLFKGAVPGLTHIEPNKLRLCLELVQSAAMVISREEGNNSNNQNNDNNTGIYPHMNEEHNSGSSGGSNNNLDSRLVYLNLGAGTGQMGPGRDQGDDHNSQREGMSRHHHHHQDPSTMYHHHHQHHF
In words: co-IP; extract of 4-day-old dark-grown 35S::myc-BOP2 seedlings (Col-0 as negative control); anti-myc immunoprecipitation; native CUL3A detected with anti-AtCul3 polyclonal antibody.

Results are given in words; binding and its absence hold for the method and conditions named. In cells and extracts the contact can be indirect. Some entries that bind do so weakly or less than the wild type. Where a sequence is shown, tags or fusion partners need not be part of it.

Our source for the binding values is paper PMC5582868, “BLADE-ON-PETIOLE proteins act in an E3 ubiquitin ligase complex to regulate PHYTOCHROME INTERACTING FACTOR 4 abundance” (eLife, 2017).

B1: HA-CUL3A (CULLIN3A), expressed in protoplasts (protein, UniProt Q9ZVH4 1-732)
chain: MSNQKKRNFQIEAFKHRVVVDPKYADKTWQILERAIHQIYNQDASGLSFEELYRNAYNMVLHKFGEKLYTGFIATMTSHLKEKSKLIEAAQGGSFLEELNKKWNEHNKALEMIRDILMYMDRTYIESTKKTHVHPMGLNLWRDNVVHFTKIHTRLLNTLLDLVQKERIGEVIDRGLMRNVIKMFMDLGESVYQEDFEKPFLDASSEFYKVESQEFIESCDCGDYLKKSEKRLTEEIERVAHYLDAKSEEKITSVVEKEMIANHMQRLVHMENSGLVNMLLNDKYEDLGRMYNLFRRVTNGLVTVRDVMTSHLREMGKQLVTDPEKSKDPVEFVQRLLDERDKYDKIINTAFGNDKTFQNALNSSFEYFINLNARSPEFISLFVDDKLRKGLKGITDVDVEVILDKVMMLFRYLQEKDVFEKYYKQHLAKRLLSGKTVSDDAERSLIVKLKTECGYQFTSKLEGMFTDMKTSEDTMRGFYGSHPELSEGPTLIVQVLTTGSWPTQPAVPCNLPAEVSVLCEKFRSYYLGTHTGRRLSWQTNMGTADIKAIFGKGQKHELNVSTFQMCVLMLFNNSDRLSYKEIEQATEIPAADLKRCLQSLACVKGKNVIKKEPMSKDIGEEDLFVVNDKFTSKFYKVKIGTVVAQKETEPEKQETRQRVEEDRKPQIEAAIVRIMKSRKILDHNNIIAEVTKQLQPRFLANPTEIKKRIESLIERDFLERDSTDRKLYRYLA
Consider B1, for which the binding result in test [1], in test [2] and in test [3] was “binds” in each case.

B2: CUL3A, native protein of Arabidopsis seedlings (protein, UniProt Q9ZVH4 1-732)
chain: MSNQKKRNFQIEAFKHRVVVDPKYADKTWQILERAIHQIYNQDASGLSFEELYRNAYNMVLHKFGEKLYTGFIATMTSHLKEKSKLIEAAQGGSFLEELNKKWNEHNKALEMIRDILMYMDRTYIESTKKTHVHPMGLNLWRDNVVHFTKIHTRLLNTLLDLVQKERIGEVIDRGLMRNVIKMFMDLGESVYQEDFEKPFLDASSEFYKVESQEFIESCDCGDYLKKSEKRLTEEIERVAHYLDAKSEEKITSVVEKEMIANHMQRLVHMENSGLVNMLLNDKYEDLGRMYNLFRRVTNGLVTVRDVMTSHLREMGKQLVTDPEKSKDPVEFVQRLLDERDKYDKIINTAFGNDKTFQNALNSSFEYFINLNARSPEFISLFVDDKLRKGLKGITDVDVEVILDKVMMLFRYLQEKDVFEKYYKQHLAKRLLSGKTVSDDAERSLIVKLKTECGYQFTSKLEGMFTDMKTSEDTMRGFYGSHPELSEGPTLIVQVLTTGSWPTQPAVPCNLPAEVSVLCEKFRSYYLGTHTGRRLSWQTNMGTADIKAIFGKGQKHELNVSTFQMCVLMLFNNSDRLSYKEIEQATEIPAADLKRCLQSLACVKGKNVIKKEPMSKDIGEEDLFVVNDKFTSKFYKVKIGTVVAQKETEPEKQETRQRVEEDRKPQIEAAIVRIMKSRKILDHNNIIAEVTKQLQPRFLANPTEIKKRIESLIERDFLERDSTDRKLYRYLA
Turning to B2, the binding entry in test [4] was “binds”.
